PubChem BioAssay AID248 (DTP/NCI, 2004)
The list shows only some results of the screen, not a fair sample: it gathers tests that were run many times, whatever their T/C, doses with no T/C, and many T/C values between a quarter and a half above the control. Other doses and runs of a compound stand elsewhere. T/C: endpoint of the treated group in % of that of the vehicle group. Some entries give survivors of the animals treated and no T/C: the source files T/C as zero there, which appears to mark a toxic dose or a test without result, not a measured value. Some survivor counts are full or nearly so, which does not show that the dose was tolerated: survival well below the control is almost never listed, so the zero probably covers shortened survival too. Survivors were counted at the toxicity check, usually on the fifth day, unless a day is given; later deaths do not show. Schedules are NCI's codes, taken here to give the interval after Q, in days (D) or hours (H), and the number of doses after X. Some structures stand for samples that the source files as different forms (salt, stereo form or complex); doses refer to the form tested. Where survival is the endpoint, the PubChem record calls one and a half times the control and up active, and a quarter to a half above the control has no call in these data; cut-offs in other NCI protocols can differ. Some T/C values carry the count of animals alive at the toxicity check (mostly the fifth day); where none is given, no animal had died by that day. Some doses were run more than once; their values stand side by side, smallest first.

Test system: L1210 leukemia ip in BDF1 mice, survival T/C
Assay: NCI In Vivo Anticancer Drug Screen. Data for tumor model L1210 Leukemia (intraperitoneal) in B6D2F1 (BDF1) mice
Details: T/C endpoint: mean survival time, higher T/C = longer survival
[1] = dose: 400.0 mg/kg/injection, schedule: Q01DX001 (ip), vehicle: saline
[2] = dose: 200.0 mg/kg/injection, schedule: Q04DX003 (ip), vehicle: saline
[3] = dose: 400.0 mg/kg/injection, schedule: Q04DX003 (ip), vehicle: saline

## CSCSCC(CO)NCc1ccccc1 (stereo not drawn)
dose: 200.0 mg/kg/injection, schedule: Q01DX009 (ip), vehicle: saline
  survivor count: 1 of 6
[1]
  survivor count: 0 of 6

## C[N+](C)(C)CCCCCC[N+](C)(C)C
[2]
  survivor count: 4 of 6
[3]
  survivor count: 0 of 6

## CC(C)(O)C(I)C[n+]1ccccc1 (stereo not drawn)
dose: 133.0 mg/kg/injection, schedule: Q04DX003 (ip), vehicle: saline with Tween-80
  T/C: 127 % of control
dose: 200.0 mg/kg/injection, schedule: Q04DX003 (ip), vehicle: saline with Tween-80
  T/C: 128 and 129 % of control
[2]
  T/C: 127 % of control
dose: 300.0 mg/kg/injection, schedule: Q01DX009 (ip), vehicle: saline
  survivor count: 1 of 6
dose: 300.0 mg/kg/injection, schedule: Q04DX003 (ip), vehicle: saline with Tween-80
  T/C: 132 % of control
dose: 400.0 mg/kg/injection, schedule: Q01DX009 (ip), vehicle: saline
  survivor count: 1 of 6
dose: 400.0 mg/kg/injection, schedule: Q04DX003 (ip), vehicle: saline with Tween-80
  T/C: 127 % of control [4 of 6 alive]
[3]
  T/C: 125 and 128 % of control [5 of 6 alive]

## NC(=O)N/N=C/c1ccc[n+]([O-])c1
dose: 200.0 mg/kg/injection, schedule: Q04DX002 (ip), vehicle: saline with Tween-80
  survivor count: 3 of 3

## CC1=CC(=O)N(NC(N)=O)C1=O
dose: 100.0 mg/kg/injection, schedule: Q01DX009 (ip), vehicle: saline with Tween-80
  survivor count: 6 of 6
dose: 400.0 mg/kg/injection, schedule: Q01DX009 (ip), vehicle: saline with Tween-80
  survivor count: 2 of 6

## O=C1CC(C(=O)O)C(C(=O)O)O1 (stereo not drawn)
dose: 300.0 mg/kg/injection, schedule: Q01DX001 (ip), vehicle: saline
  survivor count: 3 of 6

## Clc1ccc2c(OCCN3CC3)ccnc2c1
dose: 200.0 mg/kg/injection, schedule: Q01DX001 (ip), vehicle: carboxymethylcellulose (CMC)
  survivor count: 1 of 6
dose: 400.0 mg/kg/injection, schedule: Q01DX001 (ip), vehicle: carboxymethylcellulose (CMC)
  survivor count: 0 of 6

## COc1ccc2c(=O)c(C)c(-c3ccccc3)oc2c1CN(C)C
dose: 6.25 mg/kg/injection, schedule: Q01DX009 (ip), vehicle: saline
  survivor count: 0 of 6
dose: 6.25 mg/kg/injection, schedule: Q04DX003 (ip), vehicle: saline
  survivor count: 0 of 6
dose: 10.0 mg/kg/injection, schedule: Q01DX001 (ip), vehicle: saline
  survivor count: 0 of 6
dose: 12.5 mg/kg/injection, schedule: Q01DX009 (ip), vehicle: saline
  survivor count: 0 of 6
dose: 12.5 mg/kg/injection, schedule: Q04DX003 (ip), vehicle: saline
  survivor count: 1 of 6
dose: 20.0 mg/kg/injection, schedule: Q01DX001 (ip), vehicle: saline
  survivor count: 0 of 6
dose: 25.0 mg/kg/injection, schedule: Q01DX009 (ip), vehicle: saline
  survivor count: 0 of 6
dose: 25.0 mg/kg/injection, schedule: Q04DX003 (ip), vehicle: saline
  survivor count: 0 of 4
dose: 40.0 mg/kg/injection, schedule: Q01DX001 (ip), vehicle: saline
  survivor count: 0 of 6
dose: 50.0 mg/kg/injection, schedule: Q01DX009 (ip), vehicle: saline
  survivor count: 0 of 6
dose: 50.0 mg/kg/injection, schedule: Q04DX003 (ip), vehicle: saline
  survivor count: 0 of 4
dose: 80.0 mg/kg/injection, schedule: Q01DX001 (ip), vehicle: saline
  survivor count: 0 of 6
dose: 100.0 mg/kg/injection, schedule: Q01DX001 (ip), vehicle: saline
  survivor count: 0 of 6
dose: 100.0 mg/kg/injection, schedule: Q01DX009 (ip), vehicle: saline
  survivor count: 0 of 6
dose: 100.0 mg/kg/injection, schedule: Q04DX003 (ip), vehicle: saline
  survivor count: 0 of 4
dose: 200.0 mg/kg/injection, schedule: Q01DX001 (ip), vehicle: saline
  survivor count: 0 of 6
[2]
  survivor count: 0 of 4
[1]
  survivor count: 0 of 6
[3]
  survivor count: 0 of 4

## CCC(CC)NCC(C)(C)O
dose: 300.0 mg/kg/injection, schedule: Q01DX001 (ip), vehicle: acid diluted with saline
  survivor count: 3 of 6
